Record: PubChem BioAssay AID1259308 (NCATS, 2017)
Purpose: 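Candidate targets for better recombinant protein yield in mammalian cells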 (primary screen). Cell system: human HEK293 embryonic kidney cells stably expressing firefly luciferase (HEK-CMV-Luc2-Hygro). Reagent: single siRNA against human genes, 0.8 pmol siRNA per well. Time to read-out: 72 h. Measurement: 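Luciferase light (ONE-Glo) measured on one replicate plate set and viability (CellTiter-Glo) on the other, scaled to a negative control siRNA, with robust z-scores and luciferase per cell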. Reading the numbers: total luciferase, z-score and total luciferase, % of control: higher = more reporter protein produced. Call rule: 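An siRNA counts as active if its total luciferase robust z-score exceeds 3; genes with two or more such siRNAs out of three were retested with fresh siRNAs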. Calls: active = raised luciferase; inactive = no rise.
Shown is one part, drawn at random, of about 59,000 reagents. Of all reagents, about 1,510 (2.6%) are marked active. 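Calls use total luciferase alone and ignore viability, so some active siRNAs may act by altering cell number.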 The numbers tell different reagents against one gene apart. Further read-outs or replicates are left out here.

FLJ45513 #1 scored total luciferase, z-score -0.906; total luciferase, % of control 63.9; inactive.
Knock-down of FLJ45513 #2 gave: total luciferase, z-score 2.7; total luciferase, % of control 136; inactive.
Silencing of FLJ45513 #3 resulted in: total luciferase, z-score -0.48; total luciferase, % of control 72.3; inactive.
Silencing of RPS26P31 #1 came out at: total luciferase, z-score -2.64; total luciferase, % of control 29.4; inactive.
RPS26P31 #2 gave total luciferase, z-score -2.76; total luciferase, % of control 27.1; inactive.
Against RPS26P31 #3 the deposit lists total luciferase, z-score 0.706; total luciferase, % of control 95.9; inactive.
With knock-down of OR8B4 #1, the screen gave total luciferase, z-score -0.943; total luciferase, % of control 63.1; inactive.
After knock-down of OR8B4 #2 the results were total luciferase, z-score 0.144; total luciferase, % of control 84.7; inactive.
Knock-down of OR8B4 #3 came out at: total luciferase, z-score -0.137; total luciferase, % of control 79.2; inactive.
GABRQ #1 gave total luciferase, z-score -0.108; total luciferase, % of control 79.7; inactive.
With knock-down of GABRQ #2 the results were total luciferase, z-score -0.125; total luciferase, % of control 79.4; inactive.
Against GABRQ #3, the values are total luciferase, z-score -0.089; total luciferase, % of control 80.1; inactive.
TNFRSF1A #1 showed total luciferase, z-score -0.772; total luciferase, % of control 66.5; inactive.
TNFRSF1A #2 showed total luciferase, z-score 0.356; total luciferase, % of control 89; inactive.
Against TNFRSF1A #3, the entry reads total luciferase, z-score 1.22; total luciferase, % of control 106; inactive.
For FBXO32 #1, the values are total luciferase, z-score -0.89; total luciferase, % of control 64.2; inactive.
FBXO32 #2 showed total luciferase, z-score 0.463; total luciferase, % of control 91.1; inactive.
Knock-down of FBXO32 #3 resulted in: total luciferase, z-score -0.422; total luciferase, % of control 73.5; inactive.
Knock-down of RPS20 #1 gave: total luciferase, z-score -3.38; total luciferase, % of control 14.7; inactive.
Silencing of RPS20 #2 came out at: total luciferase, z-score -2.37; total luciferase, % of control 34.8; inactive.
RPS20 #3 scored total luciferase, z-score -2.04; total luciferase, % of control 41.3; inactive.
For NPM1 #1 the deposit lists total luciferase, z-score -0.457; total luciferase, % of control 72.8; inactive.
After knock-down of NPM1 #2 the results were total luciferase, z-score -0.101; total luciferase, % of control 79.9; inactive.
For NPM1 #3, the values are total luciferase, z-score -0.517; total luciferase, % of control 71.6; inactive.
Silencing of PRELID2 #1 resulted in: total luciferase, z-score 1.97; total luciferase, % of control 121; inactive.
For PRELID2 #2, the values are total luciferase, z-score -0.243; total luciferase, % of control 77.1; inactive.
PRELID2 #3 showed total luciferase, z-score 0.913; total luciferase, % of control 100; inactive.
Knock-down of UBL3 #1 gave: total luciferase, z-score -0.427; total luciferase, % of control 73.4; inactive.
For UBL3 #2, the entry reads total luciferase, z-score -1.4; total luciferase, % of control 54.1; inactive.
With knock-down of UBL3 #3, the screen gave total luciferase, z-score 3.74; total luciferase, % of control 156; active.
Against ALKAL2 #1 the deposit lists total luciferase, z-score -0.254; total luciferase, % of control 76.8; inactive.
Silencing of ALKAL2 #2 resulted in: total luciferase, z-score 0.513; total luciferase, % of control 92.1; inactive.
After knock-down of ALKAL2 #3, the screen gave total luciferase, z-score 2.04; total luciferase, % of control 122; inactive.

Taken from above:
OR8B4 #1, total luciferase, % of control → 63.1
Under “total luciferase, z-score”, FBXO32 #2 has 0.463
Result for FBXO32 #3 in “total luciferase, % of control”: 73.5
Under “total luciferase, % of control”, UBL3 #3 has 156
Result of RPS26P31 #2 in “Outcome”: inactive
